For this test, the target named is T1, GST-Z2-P123 (Homo sapiens, UniProt Q9BWE0 SEQ:1-147).
T1 sequence: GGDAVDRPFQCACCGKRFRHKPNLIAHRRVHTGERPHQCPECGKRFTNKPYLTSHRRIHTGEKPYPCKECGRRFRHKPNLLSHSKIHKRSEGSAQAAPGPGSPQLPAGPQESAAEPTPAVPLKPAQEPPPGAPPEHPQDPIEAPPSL
Briefly: Gel shift Multimers, self-association on DNA.

These are yes or no findings as the source states them, for the method shown. Some results given as binding are weak or reduced against the parent protein; the word gives no strength. Tags and fused reporters may be left off the sequences shown.

B1: GST-Z2-P123 (protein, not shown: a dimerising Fc or GST)
chain: T1 sequence
On to B1, for which the binding entry was “binds”.

Source of the values: patent publication US6903077, “Methods and products for delivering nucleic acids” (University of Vermont and State Agricultural College).
